Results are given in words; binding and its absence hold for the method and conditions named. In cells and extracts the contact can be indirect. A result given as binding can be weak or reduced; the word gives no strength.
Molecular target: βC1-cEYFP (Tomato yellow leaf curl China virus betasatellite (TYLCCNB))
Experiment: split reporter; BiFC: cEYFP and nEYFP fusions agroinfiltrated in N. benthamiana leaves; confocal microscopy two days after infiltration; normal light

B1: nEYFP-AtPIF3^bHLH (domain or fragment, UniProt O80536 343-392)
chain: RSAEVHNLSERRRRDRINEKMRALQELIPNCNKVDKASMLDEAIEYLKSL
Question: For B1, which binding is on record?
Answer: binds
